Here are results for 63 compounds from PubChem BioAssay AID493014 (National Center for Advancing Translational Sciences (NCATS), 2011).

A word on the AC50: it is the concentration giving half of the maximal activity seen.

This is one part of the list. The main result of the screen is listed elsewhere. These columns were measured beside it and carry no call. Most of these compounds were active or inconclusive in the main read-out, so they are no random draw. Words in brackets tell the shape of the fitted curve; partial curves, single points and poor fits give uncertain potencies.

The nature of the test: qHTS Assay to Find Inhibitors of Chronic Active B-Cell Receptor Signaling. The note with it: ABC-DLBCL IkBa-CBG/CBR reporter, luminescence ratio (green luciferase fused to IkBa over red control in TMD8 lymphoma cells), 4 h. The essentials: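 Cell line TMD8 (human ABC DLBCL), stably expressing tet-inducible CBG68-IkBa fusion and CBR; IMDM/0.5% FBS; cpd up to 46 uM; dox induction, 4 h, 37C/5% CO2; dual luminescence; green/red ratio; MG132 control.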
On the technique in general: In qHTS, concentration-response curves come from the screen itself.

The mark [1] stands for this setting: measured here: CBR red luminescence, cell number.
Setting [2] is: measured here: IkBa-CBG green luminescence.

Take `CCCNC(=O)COc1ccc2c(=O)c(Oc3ccccc3F)coc2c1`: the AC50 under setting [1] is 3.66 µM [rising, partial curve, poor fit].

As to `O=c1oc2ccccc2nc1/C=C(O)/C=C/c1ccc(F)cc1`, under setting [1], the AC50 was 5.17 µM [falling, partial curve, poor fit].

For `CC1=C(C(=O)OCc2ccccc2)C(c2ccccc2Cl)NC(=O)N1C` (stereo not given), the AC50 under setting [1] was 35.5 µM [falling, single point].

Regarding `O=C(Nc1cccc(Cl)c1)OCc1cnc(Cl)s1`, the AC50 under setting [1] was 1.03 µM [rising, full curve, poor fit].

Consider `CCc1cc2cc3c(cc2nc1SCC(=O)N1CCN(C(=O)c2ccco2)CC1)OCO3`, for which, under setting [1], the AC50 is 15.8 µM [falling, single point].

In the case of `Cc1cccc(C)c1OCc1cc(C(=O)N2CCN(c3ccc(F)cc3)CC2)no1`, the AC50 under setting [1] is 3.55 µM [rising, partial curve, poor fit].

With `O=C(Cn1c(=O)cnc2ccccc21)N1CCN(S(=O)(=O)c2ccc(F)cc2)CC1`, under setting [1], the AC50 was 2.59 µM [rising, full curve, poor fit].

Turning to `COc1ccccc1N1CCN(C(=O)c2cc(=O)c3cc(C)cc(C)c3o2)CC1`, the AC50 under setting [1] was 12.6 µM [rising, partial curve, poor fit] and the AC50 under setting [2] is 0.631 µM [falling, full curve, poor fit].

For `O=C(CCCN1C(=O)c2ccccc2C1=O)NCc1ccco1`, the AC50 under setting [1] is 0.517 µM [rising, partial curve].

For the compound `CN(C)c1ccc(N2C(=O)CC(Sc3ccccc3C(=O)O)C2=O)cc1` (stereo not given), the concentration at half-maximal activity (AC50) under setting [1] is 29.1 µM [falling, single point].

For the compound `CCN1CCC(=NNC(=O)CC23CC4CC(CC(C4)C2)C3)CC1`, the AC50 under setting [1] is 35.5 µM [falling, single point].

As to `CC1=C(C(=O)Nc2ccccn2)C(c2ccc(Cl)cc2)NC(=S)N1` (stereo not given), under setting [1], the AC50 was 35.5 µM [falling, single point].

In the case of `O=C1[C@@H]2CSCN2C(=O)CN1CCc1cccc(F)c1`, the concentration at half-maximal activity (AC50) under setting [1] was 11.2 µM [rising, partial curve].

For `O=C(COc1ccc(-c2ccccc2)cc1)Nc1cccnc1`, the AC50 under setting [1] was 2.06 µM [rising, partial curve].

For `Cc1cc(C)nc(Nc2n[nH]c(-c3ccccc3Cl)n2)n1`, the AC50 under setting [1] is 3.98 µM [falling, partial curve, poor fit].

As to `COc1ccc(OC)c(/C=N/NC(=O)C(=O)NCc2cccnc2)c1`, the AC50 under setting [1] is 15.8 µM [rising, single point].

For `CC(C)N(C(=O)[C@H]1C[C@H](CC(=O)NCc2ccco2)C(=O)N2CCc3c([nH]c4ccc(Cl)cc34)[C@]12C)C(C)C`, the AC50 under setting [1] is 20.6 µM [falling, single point].

For `COc1ccc(C2=CC(=O)C[C@H](c3ccc(F)cc3)C2)c(F)c1F`, the AC50 under setting [1] was 4.61 µM [rising, partial curve].

Take `CC(C)(C)n1ncc2c(=O)n(CC(=O)N3CCCc4ccccc43)cnc21`: under setting [1], the AC50 was 35.5 µM [falling, single point].

As for `COC(=O)c1ccc(Nc2cc(C)nc(-c3ccccc3O)n2)cc1`, the AC50 under setting [1] was 0.326 µM [falling, full curve].

Take `CN(C)/C=C/C(=O)c1cnc(-c2ccccn2)s1`: the half-maximal activity concentration (AC50) under setting [1] was 35.5 µM [falling, single point].

As to `CC(=O)NC12CC3CC(C1)CC(C(=O)Nc1nc4c(C)cccc4s1)(C3)C2`, the AC50 under setting [1] is 7.08 µM [falling, full curve].

Consider `CC(C)C(=O)c1cc2c(cc1NC(=O)Nc1cccc3ccccc13)OCCO2`, for which, under setting [1], the AC50 is 29.1 µM [falling, single point].

For the compound `CCOC(=O)c1cnn(CCOC(=O)c2ccc(OC)cc2)c1NC(=O)c1ccc(OC)cc1`, under setting [1], the AC50 is 13 µM [rising, partial curve, poor fit].

For `O=C(CN1C(=O)CCC1=O)Nc1ccc(Br)cc1`, under setting [1], the AC50 is 8.91 µM [falling, partial curve].

In the case of `C/C(CC(=O)NCc1ccc(Cl)cc1)=N\NC(=O)COc1ccc(C)cc1Br`, the AC50 was 31.6 µM [rising, single point] under setting [1] and 25.1 µM [falling, single point] under setting [2].

With `COc1cccc(C(=O)O/N=C/c2ccc(Sc3ccc(C)cc3)nc2)c1`, the AC50 under setting [1] is 1.16 µM [rising, partial curve, poor fit].

For the compound `CCC(=O)Nc1cnc(NC(=O)c2cccc(F)c2)cc1C`, the AC50 under setting [1] is 23.1 µM [falling, single point].

As for `CC(C)NC(=O)N1CCOCCOCCN(C(=O)NC(C)C)CCOCCOCC1`, the AC50 under setting [1] is 6.51 µM [falling, single point].

With `CCn1c(COc2ccccc2OC)nc2ccccc21`, the AC50 under setting [1] is 3.98 µM [rising, partial curve, poor fit].

Regarding `Cc1cc(-c2ccccc2)nc(N/N=C/c2ccccc2)n1`, the AC50 under setting [1] is 10 µM [falling, partial curve].

Consider `N#Cc1c(-n2cccc2)cccc1-n1cccc1`, for which the half-maximal activity concentration (AC50) under setting [1] was 11.2 µM [rising, partial curve].

Take `COc1ccc(C(=O)N/N=C/c2cc(Br)ccc2O)cc1OC`: the AC50 under setting [1] is 10 µM [falling, partial curve, poor fit].

For the compound `CN(C)S(=O)(=O)c1cccc(NC(=O)COC(=O)c2cn(-c3ccccc3)nc2-c2ccccc2)c1`, the concentration at half-maximal activity (AC50) under setting [2] is 6.51 µM [rising, full curve, poor fit].

Turning to `Clc1ccc(Cn2nnc(-c3ccc(CN4CCOCC4)cc3)n2)cc1`, the AC50 under setting [1] is 2.06 µM [rising, single point].

As for `COc1cc([N+](=O)[O-])cc(/C=N/NC(=O)c2cncc(Br)c2)c1O`, the AC50 under setting [1] was 11.2 µM [falling, partial curve, poor fit].

Regarding `COc1ccc2oc(C(=O)c3ccccc3)c(NC(=O)CN3CCN(C)CC3)c2c1`, the AC50 under setting [1] was 0.126 µM [falling, full curve].

As to `Cc1[nH]c(=O)[nH]c(=O)c1S(=O)(=O)Nc1ccc(Cl)c([N+](=O)[O-])c1`, under setting [1], the AC50 is 3.55 µM [rising, single point].

For `Cc1ccc(CN(C)C(=O)CN2C(=O)NC(c3ccccc3)(c3ccccc3)C2=O)c(C)c1`, the AC50 under setting [1] was 23.1 µM [falling, single point].

Turning to `CCOc1ccc(CN(C)CC(=O)NCc2ccc(F)cc2)cc1`, the AC50 under setting [1] is 0.501 µM [falling, full curve, poor fit].

`Cc1nnc2ccc(N3CCN(c4ccccn4)CC3)nn12`: the AC50 under setting [1] is 6.51 µM [rising, single point].

For the compound `COc1ccc(-c2nnc(COc3ccc4ccccc4c3)o2)cc1OC`, the AC50 under setting [1] is 29.1 µM [falling, single point].

`O=C(CNC(=O)c1sc2ccccc2c1Cl)NCc1cccc(C(F)(F)F)c1`: the AC50 under setting [1] was 29.1 µM [rising, partial curve, poor fit].

On to `CC1=C(C(=O)OCC(C)C)[C@]23C(=O)c4ccccc4[C@@]2(O1)OC(N)=C3C#N`, for which the half-maximal activity concentration (AC50) under setting [1] is 6.51 µM [rising, full curve, poor fit].

As for `c1ccc(-c2nnc3sc(-c4cc5ccccc5o4)nn23)cc1`, under setting [1], the AC50 was 1.16 µM [rising, full curve, poor fit].

As for `C#CCN1C(=O)S/C(=C\c2ccc(-c3ccc(C(=O)O)cc3C)o2)C1=O`, the AC50 under setting [1] was 15.8 µM [falling, single point].

For `COC(=O)c1c(-c2ccc(S(C)(=O)=O)cc2)sc2ccc(OC)cc12`, the AC50 under setting [1] was 14.6 µM [rising, partial curve, poor fit].

For the compound `CCC(C)(C)NC(=O)C(c1cccn1C)N(C(=O)Cn1nnc2ccccc21)c1ccc(NC(C)=O)cc1` (stereo not given), the AC50 under setting [1] is 8.91 µM [rising, partial curve, poor fit].

`Oc1ccc(/C=N/N=C/c2ccc(O)c(O)c2)cc1O`: the AC50 under setting [1] was 15.8 µM [falling, single point].

As to `Fc1ccc(-n2cc(-c3ccccc3)c3c(NCCc4ccccc4)ncnc32)cc1`, under setting [1], the AC50 was 10 µM [rising, partial curve].

Consider `NC(=O)Cc1nc(-c2ccc(F)cc2)cs1`, for which, under setting [1], the AC50 was 35.5 µM [rising, single point].

For the compound `COc1cccc(N2CCN(C(=O)CN(c3cc(C)cc(C)c3)S(=O)(=O)c3c(C)noc3C)CC2)c1`, the AC50 under setting [1] was 35.5 µM [falling, single point].

As for `COc1ccc(C(=O)Nc2ccccc2C(=O)N/N=C/c2ccc(O)c(OC)c2)cc1`, under setting [1], the AC50 was 0.282 µM [falling, full curve].

Regarding `CCOC(=O)c1cccc(NC(=S)N2CCN(c3ncc4c(=O)c(C(=O)O)cn(CC)c4n3)CC2)c1`, the AC50 under setting [1] was 35.5 µM [rising, single point].

As to `O=C(Nc1ccc(NC(=O)c2ccncc2)cc1)c1ccncc1`, the AC50 under setting [1] is 3.98 µM [rising, full curve, poor fit].

For `CC[n+]1c(/C=C(\C)SC)sc2ccccc21`, under setting [1], the AC50 is 35.5 µM [falling, single point].

With `CN(C)CCn1c(=O)n(Cc2ccco2)c(=O)c2c3c(sc21)CCCCC3`, the AC50 under setting [1] is 0.708 µM [falling, full curve, poor fit].

In the case of `O=C(CSc1nnc(-c2ccncc2)n1-c1ccccc1)N1CCN(c2ccc(Cl)cc2)CC1`, the AC50 under setting [1] was 0.731 µM [rising, full curve, poor fit].

With `COc1ccc(OC(=O)c2cccc([N+](=O)[O-])c2)c(C(=O)/C=C/c2cccs2)c1`, the AC50 under setting [1] is 18.4 µM [falling, single point].

On to `O=C(Nc1ccncc1)c1cccs1`, for which the AC50 under setting [1] is 15.8 µM [falling, single point].

`C/C(CCC(C)C)=N\NC(=S)NCc1ccccc1`: under setting [2], the half-maximal activity concentration (AC50) is 20 µM [falling, single point].

Consider `CC(=O)Nc1nc(COc2ccc3ccccc3c2)cs1`, for which the half-maximal activity concentration (AC50) under setting [1] is 18.4 µM [falling, partial curve, poor fit].

For `NC(=S)Nc1cc(Cl)cc(Cl)c1`, the AC50 under setting [1] is 3.55 µM [rising, full curve, poor fit].
